According to PubChem BioAssay AID540256 (National Center for Advancing Translational Sciences (NCATS), 2011):
In all, about 300,000 compounds went through this assay and about 3,700 (1.2%) were called active. Inconclusive results, whose numbers are uncertain, are shown with a selection of clear calls. Calls come from the whole dose curve; tested in HEK293 cells. A potency beside an inconclusive call is a rough fit, not a confirmed value.
Potency is the fitted concentration of half-maximal effect.

Assay: qHTS for Inhibitors of binding or entry into cells for Lassa Virus; note: nearly all actives have a fitted effect of over 50% in size
Details: Lassa virus pseudotype entry inhibition, cell reporter; series mostly up to 37.9 µM
For `COc1cnc(-c2ccccn2)nc1Sc1c(Cl)cccc1Cl`, the Potency was inconclusive: 23.1 µM [inhibitor, single point]. With `COc1ccc(NC(=O)CSc2cc(C(=O)c3nccn3C)c3ccccc3n2)cc1` the Potency was inconclusive: 11.2 µM [inhibitor, partial curve, poor fit]. For `CCC(Oc1ccccc1)C(=O)Nc1ccc(C)c(S(=O)(=O)N2CCOCC2)c1` (stereo not given), the Potency was inconclusive: 10 µM [inhibitor, partial curve]. With `O=C1c2ccccc2C(=O)c2c(/C=C/N3CCCCC3)ccnc21` the Potency was inconclusive: 20 µM [inhibitor, partial curve, poor fit]. In the case of `CCC(=O)n1nc(-c2ccccc2)nc1SCC(=O)Nc1ccc(C)cc1`, the Potency is reported as “inactive”. In the case of `Cc1cccc(N2CCN(C(=O)Cn3c(=O)c4cccn4c4ccc(F)cc43)CC2)c1C`, the Potency is reported as inconclusive: 35.5 µM [inhibitor, single point]. For `c1ccc2nc(-c3ccc(N4CCOCC4)cc3)ccc2c1`, the Potency was active: 3.66 µM. In the case of `Cc1ccc(C(C(=O)Nc2ccc3c(c2)OCO3)N(C)C(=O)/C=C\c2ccc3c(c2)OCO3)cc1` (stereo not given), the Potency is reported as “inactive”. For `CC1C(=O)N(Cc2cn(CCC3OCCO3)nn2)CCS(=O)(=O)N1Cc1ccc(-c2ccc(Cl)c(Cl)c2)cc1` (stereo not given), the Potency was inconclusive: 15.8 µM [inhibitor, partial curve, poor fit]. In the case of `CCCN(CCC(=O)Nc1cc(OC)cc(OC)c1)CC1CC1`, the Potency is reported as “inactive”. For `CC(C)NC(=S)Nc1cccc2cnccc12`, the Potency was inconclusive: 1 µM [inhibitor, single point]. For `COc1ccccc1NC(=O)CN(Cc1ccco1)C(=O)c1cccs1`, the Potency was inconclusive: 29.1 µM [inhibitor, single point]. In the case of `CCOc1cc(NC(=O)C2CC2)c(OCC)cc1NC(=O)c1ccccn1`, the Potency is reported as inconclusive: 12.6 µM [inhibitor, partial curve]. With `COCCn1c(=NC(=O)CCS(=O)(=O)c2ccccc2)sc2ccccc21` the Potency was “inactive”. With `CC1CCN(CCOCCOc2ccc(Br)cc2Cl)CC1` the Potency was inconclusive: 23.1 µM [inhibitor, single point]. For `COc1ccc(CN(C(=O)Cc2c[nH]c3ccccc23)C(C(=O)NC2CCCCC2)c2ccc(C)o2)cc1` (stereo not given), the Potency was active: 7.3 µM. With `COc1cc(OC)cc(C(=O)N/N=C\c2ccoc2)c1` the Potency was inconclusive: 35.5 µM [activator, single point]. For `O=C(O)c1ccc(NC(=O)c2ccccc2NC(=O)c2cccc(Br)c2)cc1`, the Potency was “inactive”. With `CC1=C(C(=O)NCc2ccc(Cl)cc2)C2(CCCCCC2)OC1=O` the Potency was “inactive”. In the case of `O=S(=O)(c1cccc(-c2cn3cc(Cl)ccc3n2)c1)N1CCOCC1`, the Potency is reported as “inactive”. In the case of `COc1ccc(C2(O)CC3CCC(C2)N3c2cc(C)nc(-c3ccccc3)n2)cc1` (stereo not given), the Potency is reported as “inactive”. In the case of `COc1ccc(NS(=O)(=O)c2cc(NC(=O)CNC(=O)c3ccc(C)s3)ccc2Cl)cc1`, the Potency is reported as inconclusive: 7.94 µM [inhibitor, partial curve, poor fit]. With `O=C(CSc1n[nH]c(-c2ccccn2)n1)Nc1cccc(Cl)c1` the Potency was inconclusive: 5.62 µM [inhibitor, full curve]. With `COc1ccccc1C(=O)NC(=O)Nc1ccc(-n2nc(C(F)(F)F)cc2C(F)(F)F)cc1` the Potency was “inactive”. With `Cc1ccc(NC(=O)CCc2c(C)nc3nc(C)nn3c2C)c(Cl)c1` the Potency was inconclusive: 35.5 µM [activator, single point]. With `Cc1ccc(NC(=O)c2cccs2)cc1[N+](=O)[O-]` the Potency was “inactive”. With `CNC(=O)c1ccc(Nc2nnc(-c3ccc(C)c(S(=O)(=O)N4CCOCC4)c3)c3ccccc23)cc1` the Potency was inconclusive: 2 µM [inhibitor, partial curve, poor fit]. With `CCOC(=O)c1ccccc1NC(=O)N(Cc1ccco1)C1CCN(C(C)=O)CC1` the Potency was “inactive”. With `Cc1ccccc1NC(=O)CSc1nnc(NC(=O)C2CC2)s1` the Potency was inconclusive: 35.5 µM [inhibitor, single point]. With `Cc1ccc(C)c(NC(=S)c2ccc3ccccc3n2)c1` the Potency was inconclusive: 4.11 µM [activator, partial curve]. For `CC(=O)Oc1ccccc1C(=O)O`, the Potency was inconclusive: 6.51 µM [activator, partial curve, poor fit]. For `COc1ccc(-c2nc(SCC(=O)Nc3nccs3)c(-c3ccc(Cl)cc3)[nH]2)cc1`, the Potency was inconclusive: 29.1 µM [inhibitor, single point]. For `CC1(C)Cc2cccc(OCC(=O)Nc3nccs3)c2O1`, the Potency was inconclusive: 23.1 µM [inhibitor, partial curve, poor fit]. For `OCCNc1c2c(nc3ccccc13)CCCC2`, the Potency was “inactive”. With `COc1ccc(-c2cc3c(nn2)-c2ccccc2C3=O)cc1` the Potency was inconclusive: 3.98 µM [inhibitor, partial curve, poor fit]. For `COc1cc(CN2CCN(C(=O)c3ccc(-c4ccccc4)cc3)CC2)cc(OC)c1OC`, the Potency was inconclusive: 28.2 µM [inhibitor, single point]. With `O=C(Nc1nnc(C2CC2)s1)c1cc(Cl)sc1Cl` the Potency was inconclusive: 7.08 µM [activator, full curve, poor fit]. For `O=C(Nc1ccon1)c1cc2c(s1)CCCCCC2`, the Potency was inconclusive: 29.1 µM [inhibitor, single point]. In the case of `N#Cc1ccc(NS(=O)(=O)c2ccc(-c3cnc(C4CC4)o3)cc2)cc1`, the Potency is reported as inconclusive: 1.78 µM [inhibitor, partial curve, poor fit]. With `COc1cc2c(cc1OC)NC(=O)C2` the Potency was “inactive”. With `CCn1cc(/C=N/NC(=O)c2ccc3c(c2)OCO3)cn1` the Potency was “inactive”. With `CCOC(=O)N1CCN(C(=S)NC(=O)c2ccnn2C)CC1` the Potency was inconclusive: 31.6 µM [activator, single point]. With `COc1ccccc1-c1cc(C(=O)N/N=C\c2cnn(C)c2C)c2ccccc2n1` the Potency was inconclusive: 14.1 µM [inhibitor, single point]. With `O=C(CCN1C(=O)C2C3CCC(C3)C2C1=O)Nc1cccc(Cl)c1` (stereo not given) the Potency was “inactive”. With `O=C(Nc1ccc(F)cc1F)c1cc(Cl)sc1Cl` the Potency was inconclusive: 17.8 µM [activator, single point].
